Experimental data as given in patent US20210395322A1 (OSR, published 2021).
No constants are given. Whether binding was seen depends on the method and setting. Some results given as binding are weak or reduced against the parent protein; the word gives no strength.

Experiments:
Noggin [1] = target: T1, Noggin (UniProt Q13253 28-232, limits assumed); test: size-exclusion chromatography, shift in elution time of the Noggin-NAB204 complex
T1 sequence (looked up): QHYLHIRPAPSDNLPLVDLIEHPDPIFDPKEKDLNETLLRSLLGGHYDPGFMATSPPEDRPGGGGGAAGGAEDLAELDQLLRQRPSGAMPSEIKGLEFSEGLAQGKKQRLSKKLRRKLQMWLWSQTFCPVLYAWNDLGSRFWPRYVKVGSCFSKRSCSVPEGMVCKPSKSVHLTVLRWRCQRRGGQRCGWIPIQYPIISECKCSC

Noggin [2] = target: T1, Noggin; test: size-exclusion chromatography

binding (Noggin [1]): binds
binding (Noggin [2]): binds
B1: NAB204 (ligand)
chain: MQAKHKQRKRLKSSCKRHPLYVDFSDVGWNDWIIAPSGYHANYCDGECPFPLADHLNSTNHAIVQTLVNSVNSKIPKACCVPTKLRPMSMLYYDDGQNVVLKNYQNMIVEECGCS
